Laboratory results: article doi:10.1101/2020.02.07.938951
No constants are given. Whether binding was seen depends on the method and setting. For some assays here: Binding seen in cells or lysates may run through a third protein. Some results given as binding are weak or reduced against the parent protein; the word gives no strength. Sequences can lack the tags named with a protein.

T1: LexA-PIF4 (PHYTOCHROME … FACTOR 4 in pEG202) (Arabidopsis thaliana) (UniProt Q8W2F3)
T1 sequence: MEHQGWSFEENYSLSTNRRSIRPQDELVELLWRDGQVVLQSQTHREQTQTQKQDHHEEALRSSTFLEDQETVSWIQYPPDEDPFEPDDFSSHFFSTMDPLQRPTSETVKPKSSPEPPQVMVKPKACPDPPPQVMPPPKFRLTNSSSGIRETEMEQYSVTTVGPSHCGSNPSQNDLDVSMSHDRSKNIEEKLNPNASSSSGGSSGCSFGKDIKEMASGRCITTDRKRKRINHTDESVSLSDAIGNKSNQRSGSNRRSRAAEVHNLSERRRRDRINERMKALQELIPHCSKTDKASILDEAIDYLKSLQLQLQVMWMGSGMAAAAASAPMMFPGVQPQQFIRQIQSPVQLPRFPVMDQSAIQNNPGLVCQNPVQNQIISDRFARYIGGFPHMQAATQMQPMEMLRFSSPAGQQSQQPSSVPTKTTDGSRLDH

T2: GST-PIF4 (Arabidopsis thaliana) (UniProt Q8W2F3)
T2 sequence: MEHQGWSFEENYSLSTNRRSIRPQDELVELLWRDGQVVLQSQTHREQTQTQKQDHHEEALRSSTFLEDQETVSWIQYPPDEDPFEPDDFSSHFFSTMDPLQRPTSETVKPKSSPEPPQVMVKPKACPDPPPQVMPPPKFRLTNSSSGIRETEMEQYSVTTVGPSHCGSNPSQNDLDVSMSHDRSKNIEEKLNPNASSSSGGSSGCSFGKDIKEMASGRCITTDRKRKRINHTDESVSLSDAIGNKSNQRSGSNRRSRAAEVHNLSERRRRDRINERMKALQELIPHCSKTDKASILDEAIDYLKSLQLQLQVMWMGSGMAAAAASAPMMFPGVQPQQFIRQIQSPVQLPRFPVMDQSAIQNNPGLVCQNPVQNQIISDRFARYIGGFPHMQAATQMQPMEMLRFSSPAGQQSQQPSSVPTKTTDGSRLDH


Legend:
[1] = target: T1, LexA-PIF4 (PHYTOCHROME … FACTOR 4 in pEG202) (Arabidopsis thaliana); assay: two-hybrid
[2] = target: T2, GST-PIF4 (Arabidopsis thaliana); assay: pull-down

Row | binding [1] | binding [2] | Binder
1 | binds | – | AD-SPA1 (SUPPRESSOR OF PHYA-105 1 in pJG4-5) (protein, UniProt Q9SYX2 1-1029) MPVMERVAEETVATNNIQLKARVDDVPCNKLDARHNDMVIQSETANSDCPGSSAHRNVDLTKPPPPEEAAGAKLSVEELTLGNYRIVQGSNNTNVDSPRAGKFEHLYRLARGSAFRAGDGDLDSQPRDMDQMLSRIRQQLAGAPSERQNLKPFMSRRSDQNLEAFSERLRAAGENSIMNAPALISEGVQMKTPVSSSNFSQLLLKRAMKGKGVVGKNQETPPEFVSDQDLGSKEKKLDISKSPTPHDVLPLKSSPKGNGMVSHGDGNHSKSSIGISLREFLRSSYAKREKRHGLCLFRQLVELVDSAHSKRLFLLDLRPSLFTLVPSKKLRYIGNFGKNDLESDVDEDLNRRRPVVEESSSGGRDSKKRKMDLHLNSPGNQLQATSTGRPFKRKSPVIDLNMVDARNPDSCELQQQDYIKNLSVSSVSRKQSMSTWLEEQWYTCPEEINGEDIGEKSNIYALGVLLFELLCHCESGEMHAAMMADLRHRILPPTFLSKYPKEAGFCLWLLHPEPSSRPSARDILKSELICEDDSVKSTAAAEEISELLLHFLSSLEVQKKKKASKLLQDIQTLEDDIKEAERRYSSNVSLVRSHGAIEKRVQSSPLDEHCTTSSALFVPTANTDRLMSNIRQLEDAYFFMRSQINLSSSAATARSDKTLKDRDRCSENQNENQDMSTKGKSSDQLEVFFEGLCKFARYSKFETCGTIRSGDLLNSASVVCSLSFDPDEEHIAAAGISKKIKIFDFNAFMNESVGVHYPLVEMVNKSKLSCVCWNSYIKNYLASTDYDGVVQIWDAGTGQGFSQYTEHQKRAWSVDFSPSDPTKFVSGSDDCSVKLWSINEKRSLGTIWSPANVCCVQFSSYSNHLLAFGSADYKVYCYDLRYVKTPWCTLAGHEKAVSYVKFMDSETIVSASTDNSLKLWNLNKTNSSGLSPGACSLTYKGHTNQKNFVGLSVLDGYIACGSETNEVYSYYKSLPMPMTSYKFGSVDPISGNEYFDDNGQFVSSVCWRKKSNMLVAANSTGNMKLLKLV
2 | – | binds | MBP-SPA1 (protein, UniProt Q9SYX2 1-1029) MPVMERVAEETVATNNIQLKARVDDVPCNKLDARHNDMVIQSETANSDCPGSSAHRNVDLTKPPPPEEAAGAKLSVEELTLGNYRIVQGSNNTNVDSPRAGKFEHLYRLARGSAFRAGDGDLDSQPRDMDQMLSRIRQQLAGAPSERQNLKPFMSRRSDQNLEAFSERLRAAGENSIMNAPALISEGVQMKTPVSSSNFSQLLLKRAMKGKGVVGKNQETPPEFVSDQDLGSKEKKLDISKSPTPHDVLPLKSSPKGNGMVSHGDGNHSKSSIGISLREFLRSSYAKREKRHGLCLFRQLVELVDSAHSKRLFLLDLRPSLFTLVPSKKLRYIGNFGKNDLESDVDEDLNRRRPVVEESSSGGRDSKKRKMDLHLNSPGNQLQATSTGRPFKRKSPVIDLNMVDARNPDSCELQQQDYIKNLSVSSVSRKQSMSTWLEEQWYTCPEEINGEDIGEKSNIYALGVLLFELLCHCESGEMHAAMMADLRHRILPPTFLSKYPKEAGFCLWLLHPEPSSRPSARDILKSELICEDDSVKSTAAAEEISELLLHFLSSLEVQKKKKASKLLQDIQTLEDDIKEAERRYSSNVSLVRSHGAIEKRVQSSPLDEHCTTSSALFVPTANTDRLMSNIRQLEDAYFFMRSQINLSSSAATARSDKTLKDRDRCSENQNENQDMSTKGKSSDQLEVFFEGLCKFARYSKFETCGTIRSGDLLNSASVVCSLSFDPDEEHIAAAGISKKIKIFDFNAFMNESVGVHYPLVEMVNKSKLSCVCWNSYIKNYLASTDYDGVVQIWDAGTGQGFSQYTEHQKRAWSVDFSPSDPTKFVSGSDDCSVKLWSINEKRSLGTIWSPANVCCVQFSSYSNHLLAFGSADYKVYCYDLRYVKTPWCTLAGHEKAVSYVKFMDSETIVSASTDNSLKLWNLNKTNSSGLSPGACSLTYKGHTNQKNFVGLSVLDGYIACGSETNEVYSYYKSLPMPMTSYKFGSVDPISGNEYFDDNGQFVSSVCWRKKSNMLVAANSTGNMKLLKLV
